Results are given in words; binding and its absence hold for the method and conditions named. Some binding calls cover weakened binding; strength is not graded here.
Experiments:
[1] = molecular target: T1, Rsph3b (mouse) (UniProt Q9DA80); assay: cryo-EM structure
T1 sequence: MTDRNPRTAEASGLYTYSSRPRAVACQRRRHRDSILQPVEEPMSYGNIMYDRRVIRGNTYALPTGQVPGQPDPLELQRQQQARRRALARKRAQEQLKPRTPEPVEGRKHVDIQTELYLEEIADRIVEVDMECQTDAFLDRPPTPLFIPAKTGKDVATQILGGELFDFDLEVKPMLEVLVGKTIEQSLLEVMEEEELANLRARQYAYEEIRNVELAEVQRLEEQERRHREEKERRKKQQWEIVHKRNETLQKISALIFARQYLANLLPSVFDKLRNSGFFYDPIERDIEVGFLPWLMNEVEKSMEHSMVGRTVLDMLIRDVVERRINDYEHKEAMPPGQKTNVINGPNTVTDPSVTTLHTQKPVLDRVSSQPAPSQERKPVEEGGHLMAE

[2] = molecular target: T2, Rsph9 (mouse) (UniProt Q9D9V4); assay: cryo-EM structure
T2 sequence: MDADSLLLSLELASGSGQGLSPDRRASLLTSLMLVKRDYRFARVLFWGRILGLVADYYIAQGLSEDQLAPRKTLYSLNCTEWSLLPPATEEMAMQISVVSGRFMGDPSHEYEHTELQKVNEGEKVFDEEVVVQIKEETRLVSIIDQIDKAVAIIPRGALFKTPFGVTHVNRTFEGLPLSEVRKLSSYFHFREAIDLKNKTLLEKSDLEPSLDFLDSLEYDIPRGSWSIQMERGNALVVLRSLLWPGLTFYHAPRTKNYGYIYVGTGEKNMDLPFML

[3] = molecular target: T3, Rsph16 (mouse) (UniProt Q80Y75); assay: cryo-EM structure
T3 sequence: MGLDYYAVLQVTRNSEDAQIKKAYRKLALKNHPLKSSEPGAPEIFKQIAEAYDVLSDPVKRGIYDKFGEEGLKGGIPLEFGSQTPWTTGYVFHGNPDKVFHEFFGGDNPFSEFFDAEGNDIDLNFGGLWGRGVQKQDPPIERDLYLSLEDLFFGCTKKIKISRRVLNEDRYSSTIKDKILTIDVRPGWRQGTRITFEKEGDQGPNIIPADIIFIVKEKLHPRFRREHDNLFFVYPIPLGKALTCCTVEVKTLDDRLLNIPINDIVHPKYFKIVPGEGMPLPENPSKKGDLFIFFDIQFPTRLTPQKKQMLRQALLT

[4] = molecular target: T4, Rsph4a (mouse) (UniProt Q8BYM7); assay: cryo-EM structure
T4 sequence: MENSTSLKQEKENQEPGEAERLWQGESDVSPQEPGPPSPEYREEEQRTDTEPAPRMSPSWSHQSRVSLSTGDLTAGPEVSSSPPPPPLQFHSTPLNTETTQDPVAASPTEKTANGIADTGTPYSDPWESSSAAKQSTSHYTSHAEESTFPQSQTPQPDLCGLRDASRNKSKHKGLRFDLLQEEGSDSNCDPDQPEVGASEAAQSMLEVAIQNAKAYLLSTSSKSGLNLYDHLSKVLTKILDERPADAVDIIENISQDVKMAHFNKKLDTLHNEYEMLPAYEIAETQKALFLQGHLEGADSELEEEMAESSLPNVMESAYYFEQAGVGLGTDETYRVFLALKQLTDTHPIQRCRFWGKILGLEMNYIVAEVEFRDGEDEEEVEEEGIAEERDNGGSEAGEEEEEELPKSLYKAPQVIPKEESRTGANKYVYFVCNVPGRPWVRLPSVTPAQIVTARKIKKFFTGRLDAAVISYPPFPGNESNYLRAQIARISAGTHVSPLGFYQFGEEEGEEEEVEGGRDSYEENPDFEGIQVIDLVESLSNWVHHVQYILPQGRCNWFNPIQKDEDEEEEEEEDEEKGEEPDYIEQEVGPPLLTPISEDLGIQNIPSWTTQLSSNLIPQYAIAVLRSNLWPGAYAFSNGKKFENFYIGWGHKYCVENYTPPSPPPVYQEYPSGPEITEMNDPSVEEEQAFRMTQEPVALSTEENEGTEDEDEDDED

[5] = molecular target: T3, Rsph16 (mouse); assay: cross-linking

B1: Rsph4a (protein, UniProt Q8BYM7 1-716)
chain: T4 sequence
binding [1]: binds | binding [2]: binds

B2: Rsph23 (protein, UniProt Q99MH5 1-211)
chain: MEVSMPLPQIYVEKTLALIKPDVVDKEEEIQDIILGSGFTIIQRRKLHLSPEHCSNFYVEQYGKMFFPNLTAYMSSGPLVAMILARHKAISYWKELMGPSNSLVAKETHPDSLRAIYGTDELRNALHGSNDFAASEREIRFMFPAVIIEPIPIGQAAKDYINLYVAPTLLQGLTELCKEKPPDPYLWLADWLMKNNPNKPKLCHFPVTEEP
binding [3]: binds | binding [1]: binds

B3: Rsph9 (protein, UniProt Q9D9V4 1-276)
chain: T2 sequence
binding [3]: binds

B4: Rsph1 (protein, UniProt Q8VIG3 1-301)
chain: MSDLGSEELEEEGENDLGEYEGERNEVGERHGHGKARLPNGDTYEGSYEFGKRHGQGTYKFKNGARYTGDYVKNKKHGQGTFIYPDGSRYEGEWADDQRHGQGVYYYVNNDTYTGEWFNHQRHGQGTYLYAETGSKYVGTWVHGQQEGAAELIHLNHRYQGKFMNKNPVGPGKYVFDIGCEQHGEYRLTDTERGEEEEEEETLVNIVPKWKALNITELALWTPTLSEEQPPPEGQGQEEPQGLTGVGDPSEDIQAEGFEGELEPRGADEDVDTFRQESQENSYDIDQGNLNFDEEPSDLQD
binding [4]: binds

B5: Rsph10b (protein, UniProt E9PYQ0 1-876)
chain: MVKEKKKADKKGDKSARSPSSISDNPEASKQDSNASKQEVAPSAVVPVVETPLKQAPKRDSVQMEQSEEETQYEEPILTKLIVESYEGEKVRGLYEGEGFAVFQGGNTYHGMFSEGLMHGQGTYIWADGLKYEGDFVKNIPMNHGVYTWPDGSTYEGEVTNGMRNGFGMFKCGTQPVSYIGHWCHGKRHGKGSIYYNQEGTSWYEGDWVYNIKKGWGIRCYKSGNIYEGQWENNMRHGEGRMRWLTTNEEYTGHWEKGIQNGFGTHTWFLKRIPNSQYPLRNEYIGEFVNGFRHGQGKFYYASGAMYEGEWASNKKQGRGRMTFKNGHVYEGLFSNDHIAQFFETEMDYSQSLDRWSDASQRSRQPRGSSVSAVREPETLRKLDGSESRSVLGTSIELDLTLLLDMYPEESQEEEKKQVEYAVLRNITELRRIYCFYSGLGCDHSLDNTFLMTKLHFWRFLKDCRFHHHNITLADMDRVLSVYNGIPIEEIHSPFRTILLRTFLNYLLQLAYYIHHKEFQNRSPSLFLCFTKLMSENIHPHACQVKGHLFSEQQRTLYSMNYIDKCWEIYTAYCRPNEAPPYELTMKMRYFLWMLKDFRMINKDLTATKFMTVIAEDNPFVYDGTDSNFELELVFLEFFEALLCFSLCCMFDQMTRSYLKVPYDDITTNRYGSTQTILNQSIHRSPSAITSHDSEVHFSSTKSSLDKIGALPDGKIRQSEPKLKKSLSEDKVSKMNFKTQGRGLVFMSPQGEKYEKPKDEQKEKLNIWVNNLYVFFVSVLFSAYKREEMLKEKVKENQLQEAELAQQRQIENEELEARLNILREEEARKQDFELDITVLKEPSEIPASQPLTPSPPKEDLASIQTSKASPGKKKKK
binding [5]: binds weakly

Source: paper doi:10.1101/2023.06.02.543457
